The test system of assay [1] is TM4 mouse Sertoli cells. Put plainly: Cell growth and viability (MTT), dose-response of the drugs alone. Format: cell-based. Conditions: 48 h of exposure, drug alone, 50% fraction of cells affected (Fa), non-linear fitting. How it is done: Cells were maintained in standard conditions for 24 h before treatments. […] All azoles were dissolved in DMSO. In an effort to avoid a possible experimental artifact with vehicles, experiments were performed including control groups in which the effect of the drug vehicle alone was tested (vehicle control, vCTR). […] For experiments with N-acetylcysteine (NAC), 24 h after seeding cells were pre-treated for 1 h with the ROS inhibitor (1 mM) and then maintained in co-treatment with azoles for 48 h.
TM4 cells were seeded at a density of 1 × 10^4/cm^2, and cultures incubated at standard conditions in the presence or the absence of azoles to reach final concentrations ranging from 0.078 µM up to 320 µM in culture medium. Cell growth and viability were assessed at 24 and 48 h by Trypan-blue exclusion assay and MTT (3-(4,5-dimethylthiazol-2-yl)-2,5-diphenyl-2H-tetrazolium-bromide) colorimetric method (Sigma-Aldrich, St. Louis, MO, USA), quantifying the metabolic efficiency of living cells.
The Interaction Index (II) was calculated, as previously described, by modifying the Chou and Talalay equation [78]. Specifically, Chou and Talalay’s median-effect method estimates the IC50 and the sigmodicity coefficient m values using linear regression of the linearised dose-response curve. […]

For assay [2], the system named is antioxidant enzymes in TM4 cells. Put plainly: Antioxidant enzymatic activity assays (SOD, CAT, GPx, GR, GST). It is filed as cell-based, mouse. As to conditions: 3 h of exposure, vCTR = 0.46 ± 0.067. The protocol: The antioxidant enzymatic activities were performed spectrophotometrically, as previously described. Briefly, after 3 h of incubation with azoles, cells were washed in ice-cold PBS, resuspended in buffer containing 50 mM Tris–HCl (pH 7.4), 1% (v/v) Triton X-100, 1 mM EDTA, and then disrupted by three freeze-thawing cycles. After centrifugation (17,000 g, 10 min, 4 °C), the supernatants were collected for protein quantification and subsequently analysed.
The glutathione reductase (GR) activity was evaluated spectrophotometrically by measuring NADPH oxidation (340 nm at 25 °C). […]
Total glutathione peroxidase (GPx) activity (se-dependent and se-independent) of each cell extract was assayed spectrophotometrically by following the NADPH oxidation (340 nm). […] The glutathione transferase (GST) activity was evaluated by determining the GSH conjugation rate to 1-chloro-2,4- dinitrobenzene at 340 nm. The reaction mixture was prepared with 0.1 M potassium phosphate buffer (pH 6.5), 2 mM GSH, 1 mM 1-chloro-2,4-dinitrobenzene, and a determined amount of the supernatants.
The catalase (CAT) activity was evaluated, by monitoring at 240 nm its 10-millimolar decomposition. […]
The superoxide dismutase (SOD) activity was determined using a colourimetric activity assay (ThermoFisher Scientific—Life Technologies Corp, Carlsband, CA, USA). […]

The term IC50 denotes the concentration at which inhibition is half-maximal.

For the compound `Clc1ccc(COC(Cn2ccnc2)c2ccc(Cl)cc2Cl)c(Cl)c1` (stereo not drawn) [MCZ, miconazole], the IC50 in assay [1] is 34.4 ± 2.5 µM; in assay [1] (Mus musculus, TM4, 48 h), about 34 µM. Further, the “SOD/(GPx + CAT) ratio” value in assay [2] is reported as 0.142 ± 0.015.

(Values after publication PMC9140920 (International Journal of Molecular Sciences, 2022).)
